Data source: PubChem BioAssay AID743121 (NCATS, 2013)
The deposit covers about 26,000 reagents; below is an unselected part. 167 of all reagents (0.63%) were called active. 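Calls are per gene from RSA p-values that are not deposited; an individual active-marked siRNA can sensitise only weakly.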 The numbers tell different reagents against one gene apart. Not all columns of the deposit are shown.

Assay: 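Partners whose loss is lethal together with topoisomerase I blockade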 (primary screen)
System: MDA-MB-231 cells, a human breast cancer line
Knock-down reagent: single siRNA against human genes, 20 nM siRNA (0.8 pmol per well)
Time to read-out: 120 h (drug added 48 h after transfection, read 72 h later)
Conditions: camptothecin 20 nM (about EC30) for 72 h; vehicle 0.1% DMSO in parallel plates
Read-out: 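CellTiter-Glo ATP signal, scaled to control siRNA as percent viability; sensitisation given as log2 of untreated divided by camptothecin-treated viability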
Reading the numbers: log2 vehicle/camptothecin viability: higher = stronger sensitisation to camptothecin; viability with camptothecin: higher = more viable cells
Units: viability with camptothecin in % of control
Hit rule: 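Each gene scored by redundant siRNA activity (RSA) over its individual siRNA ratios; a gene is called active at p < 0.001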

For LLGL1 (GeneID 3996) #1 the deposit lists log2 vehicle/camptothecin viability 0.639; viability with camptothecin 46.7; inactive.
For LLGL1 (GeneID 3996) #2 the deposit lists log2 vehicle/camptothecin viability 0.295; viability with camptothecin 56.4; inactive.
Against LLGL1 (GeneID 3996) #3, the values are log2 vehicle/camptothecin viability 0.116; viability with camptothecin 52.4; inactive.
After knock-down of CTDSP2 (GeneID 10106) #1 the results were log2 vehicle/camptothecin viability -0.332; viability with camptothecin 68; inactive.
CTDSP2 (GeneID 10106) #2 gave log2 vehicle/camptothecin viability -0.43; viability with camptothecin 43.7; inactive.
With knock-down of CTDSP2 (GeneID 10106) #3, the screen gave log2 vehicle/camptothecin viability -0.258; viability with camptothecin 68; inactive.
With knock-down of CTDSP2 (GeneID 10106) #4, the screen gave log2 vehicle/camptothecin viability -0.237; viability with camptothecin 85.6; inactive.
Knock-down of CCL26 (GeneID 10344) #1 came out at: log2 vehicle/camptothecin viability -0.157; viability with camptothecin 88.3; inactive.
CCL26 (GeneID 10344) #2 scored log2 vehicle/camptothecin viability -0.152; viability with camptothecin 72.5; inactive.
With knock-down of CCL26 (GeneID 10344) #3 the results were log2 vehicle/camptothecin viability 0.0398; viability with camptothecin 92.1; inactive.
For CCL26 (GeneID 10344) #4, the values are log2 vehicle/camptothecin viability 0.184; viability with camptothecin 27; inactive.
For MINDY2 (GeneID 54629) #1 the deposit lists log2 vehicle/camptothecin viability 0.329; viability with camptothecin 37.7; inactive.
After knock-down of MINDY2 (GeneID 54629) #2, the record shows log2 vehicle/camptothecin viability 0.416; viability with camptothecin 33.5; inactive.
Against MINDY2 (GeneID 54629) #3 the deposit lists log2 vehicle/camptothecin viability -0.464; viability with camptothecin 66.1; inactive.
Against MINDY2 (GeneID 54629) #4, the values are log2 vehicle/camptothecin viability -0.469; viability with camptothecin 66.2; inactive.
For TRPM6 (GeneID 140803) #1, the values are log2 vehicle/camptothecin viability -0.0757; viability with camptothecin 81.3; inactive.
Depletion of TRPM6 (GeneID 140803) #2 gave: log2 vehicle/camptothecin viability 0.12; viability with camptothecin 105; inactive.
TRPM6 (GeneID 140803) #3 showed log2 vehicle/camptothecin viability -0.41; viability with camptothecin 81.6; inactive.
For TRPM6 (GeneID 140803) #4 the deposit lists log2 vehicle/camptothecin viability 0.00994; viability with camptothecin 84.2; inactive.
Against DLG5 (GeneID 9231) #1 the deposit lists log2 vehicle/camptothecin viability 0.0934; viability with camptothecin 69.9; inactive.
With knock-down of DLG5 (GeneID 9231) #2, the screen gave log2 vehicle/camptothecin viability -0.765; viability with camptothecin 78.1; inactive.
DLG5 (GeneID 9231) #3 gave log2 vehicle/camptothecin viability -1.02; viability with camptothecin 32.4; inactive.
After knock-down of DLG5 (GeneID 9231) #4 the results were log2 vehicle/camptothecin viability 0.233; viability with camptothecin 34.7; inactive.

Already shown: an excerpt of the list.
MINDY2 (GeneID 54629) #2 | log2 vehicle/camptothecin viability: 0.416; viability with camptothecin: 33.5; call: inactive
MINDY2 (GeneID 54629) #3 | log2 vehicle/camptothecin viability: -0.464; viability with camptothecin: 66.1; call: inactive
MINDY2 (GeneID 54629) #4 | log2 vehicle/camptothecin viability: -0.469; viability with camptothecin: 66.2; call: inactive
TRPM6 (GeneID 140803) #1 | log2 vehicle/camptothecin viability: -0.0757; viability with camptothecin: 81.3; call: inactive

Next records follow:
Against OASL (GeneID 8638) #1, the entry reads log2 vehicle/camptothecin viability -0.0862; viability with camptothecin 15.4; inactive.
Silencing of OASL (GeneID 8638) #2 resulted in: log2 vehicle/camptothecin viability -0.164; viability with camptothecin 49.6; inactive.
Knock-down of OASL (GeneID 8638) #3 resulted in: log2 vehicle/camptothecin viability -0.434; viability with camptothecin 108; inactive.
For OASL (GeneID 8638) #4, the values are log2 vehicle/camptothecin viability 0.211; viability with camptothecin 76; inactive.
Depletion of GSAP (GeneID 54103) #1 resulted in: log2 vehicle/camptothecin viability -0.156; viability with camptothecin 101; inactive.
For GSAP (GeneID 54103) #2 the deposit lists log2 vehicle/camptothecin viability -0.113; viability with camptothecin 99.6; inactive.
Knock-down of GSAP (GeneID 54103) #3 came out at: log2 vehicle/camptothecin viability -0.199; viability with camptothecin 119; inactive.
For GSAP (GeneID 54103) #4, the values are log2 vehicle/camptothecin viability -0.255; viability with camptothecin 66.2; inactive.
CYTH3 (GeneID 9265) #1 gave log2 vehicle/camptothecin viability -0.516; viability with camptothecin 65.4; inactive.
Depletion of CYTH3 (GeneID 9265) #2 resulted in: log2 vehicle/camptothecin viability -0.4; viability with camptothecin 57.6; inactive.
After knock-down of CYTH3 (GeneID 9265) #3, the record shows log2 vehicle/camptothecin viability -0.00941; viability with camptothecin 91; inactive.
Depletion of CYTH3 (GeneID 9265) #4 gave: log2 vehicle/camptothecin viability -0.0826; viability with camptothecin 101; inactive.
